These are yes or no findings as the source states them, for the method shown. For some assays here: In cells and extracts the contact can be indirect. Some binding calls cover weakened binding; strength is not graded here.
What was measured:
[1] = target: Pdr1 (wild-type) (Candida glabrata) (UniProt Q6FXU7); test: co-IP
[2] = target: tandem affinity purification (TAP)-tagged form of Pdr1 (Candida glabrata) (UniProt Q6FXU7); test: tandem affinity purification

Protein sequences, listed by entry. Tags and fused reporters are not part of them.
UniProt Q6FXU7: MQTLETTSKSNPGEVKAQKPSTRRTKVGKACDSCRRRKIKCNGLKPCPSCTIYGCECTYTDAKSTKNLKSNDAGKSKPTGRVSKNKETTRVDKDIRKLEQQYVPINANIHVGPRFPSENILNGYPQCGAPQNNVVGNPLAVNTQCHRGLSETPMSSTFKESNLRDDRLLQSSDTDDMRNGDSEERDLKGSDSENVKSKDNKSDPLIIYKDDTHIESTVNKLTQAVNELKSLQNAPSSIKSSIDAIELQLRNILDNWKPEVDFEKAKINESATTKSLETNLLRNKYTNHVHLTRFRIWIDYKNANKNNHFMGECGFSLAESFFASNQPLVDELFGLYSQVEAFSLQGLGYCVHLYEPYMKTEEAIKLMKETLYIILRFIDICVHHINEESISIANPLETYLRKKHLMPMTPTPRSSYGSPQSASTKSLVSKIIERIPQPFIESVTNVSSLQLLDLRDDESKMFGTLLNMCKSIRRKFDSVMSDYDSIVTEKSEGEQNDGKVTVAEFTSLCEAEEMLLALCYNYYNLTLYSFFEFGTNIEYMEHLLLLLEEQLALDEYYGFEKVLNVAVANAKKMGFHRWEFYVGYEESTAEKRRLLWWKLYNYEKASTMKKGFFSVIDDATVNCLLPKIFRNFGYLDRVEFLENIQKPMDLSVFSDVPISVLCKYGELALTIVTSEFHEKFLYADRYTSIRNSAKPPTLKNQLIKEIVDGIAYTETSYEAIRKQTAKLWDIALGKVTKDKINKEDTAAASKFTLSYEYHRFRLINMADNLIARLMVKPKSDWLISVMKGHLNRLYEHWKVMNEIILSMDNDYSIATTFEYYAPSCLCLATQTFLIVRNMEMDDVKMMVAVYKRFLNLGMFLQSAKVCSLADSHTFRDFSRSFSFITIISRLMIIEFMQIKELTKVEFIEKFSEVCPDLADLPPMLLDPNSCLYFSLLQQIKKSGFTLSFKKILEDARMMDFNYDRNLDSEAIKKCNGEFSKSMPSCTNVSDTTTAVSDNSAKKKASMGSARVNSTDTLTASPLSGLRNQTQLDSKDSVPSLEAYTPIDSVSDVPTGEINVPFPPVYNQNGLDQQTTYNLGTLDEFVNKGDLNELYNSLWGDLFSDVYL

Substance | binding [1] | binding [2]
Cna1-2X FLAG protein (from UniProt Q6FKJ3 1-575) (enzyme) | binds | –
catalytic subunit of the protein phosphatase calcineurin (Cna1) (from UniProt Q6FKJ3 1-575) (enzyme) | – | binds

From doi:10.1101/2023.07.10.548434
